Test results taken from patent US11639348B2, “Compositions and methods for neuraminidase detection and quantification” (priority 2018, dated 2023).
At least one read-out could not be matched to a standard name with certainty.

Assays:
[1] = tested on: A/Brisbane/59/2007 H1N1 NA; assay type: biochemical, influenza A/Brisbane/59/2007 H1N1
B/Hong Kong/05/1972 NA = assay type: biochemical, influenza B/Hong Kong/05/1972
[2] = tested on: A/California/07/2009 H1N1 NA; assay type: biochemical, influenza A/California/07/2009 H1N1
B/Florida/04/2006 NA = assay type: biochemical, influenza B/Florida/04/2006
[3] = tested on: A/Washington/10/2008 H1N1 NA; assay type: biochemical, influenza A/Washington/10/2008 H1N1

CC(=O)NC1C(NC(=N)N)C(F)C(Oc2c(F)cc3c(C)cc(=O)oc3c2F)(C(=O)O)OC1[C@H](O)[C@H](O)CO (stereo partly drawn) [compound 3, 5-Acetamido-4-guanidine-3-fluoro-3,4,5-trideoxy-2α-(4-methyl-6,8-difluoromethylumbelliferyl)-D-glycero-D-galactononulopyranosylnoic acid]
kcat/Km [1]: 790000 M⁻¹ s⁻¹ | kcat/Km (B/Hong Kong/05/1972 NA): 1.01e+06 M⁻¹ s⁻¹ | kcat/Km [2]: 2.4e+06 M⁻¹ s⁻¹ | kcat/Km (B/Florida/04/2006 NA): 930000 M⁻¹ s⁻¹ | kcat/Km [3]: 1.02e+06 M⁻¹ s⁻¹
